Measured values taken from publication PMC8087827.
Results are given in words; binding and its absence hold for the method and conditions named. For part of these data: Binding seen in cells or lysates may run through a third protein. Some results given as binding are weak or reduced against the parent protein; the word gives no strength. Sequences can lack the tags named with a protein.

Columns and labels:
[1] = molecular target: T1, Arabidopsis MEA fused to cYFP (cYFP-AtMEA) (Arabidopsis thaliana) (UniProt O65312); experiment: split reporter; BiFC in N. benthamiana leaves agroinfiltrated with the two constructs (1:1 w/w) and PDLP5-CFP as PD marker; confocal images 48 h after agroinfiltration
T1 sequence: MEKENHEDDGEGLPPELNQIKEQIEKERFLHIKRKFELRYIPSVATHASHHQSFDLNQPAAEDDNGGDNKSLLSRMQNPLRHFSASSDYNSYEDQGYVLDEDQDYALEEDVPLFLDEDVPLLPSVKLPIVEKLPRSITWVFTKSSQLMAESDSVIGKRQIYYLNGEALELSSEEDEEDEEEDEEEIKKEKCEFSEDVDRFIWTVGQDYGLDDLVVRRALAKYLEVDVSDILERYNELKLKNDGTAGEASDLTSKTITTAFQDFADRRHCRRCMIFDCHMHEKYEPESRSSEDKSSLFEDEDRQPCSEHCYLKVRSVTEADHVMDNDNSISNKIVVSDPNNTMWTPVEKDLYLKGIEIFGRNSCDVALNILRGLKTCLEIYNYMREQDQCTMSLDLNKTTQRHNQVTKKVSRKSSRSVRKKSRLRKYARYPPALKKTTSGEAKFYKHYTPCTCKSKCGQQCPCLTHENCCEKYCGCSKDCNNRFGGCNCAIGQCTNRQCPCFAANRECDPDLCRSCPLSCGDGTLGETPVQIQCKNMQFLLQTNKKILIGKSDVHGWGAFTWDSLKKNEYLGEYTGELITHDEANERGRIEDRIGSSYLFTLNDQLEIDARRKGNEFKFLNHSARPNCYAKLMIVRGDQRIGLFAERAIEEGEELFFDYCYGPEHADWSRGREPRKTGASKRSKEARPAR

[2] = molecular target: T2, Arabidopsis receptor-like kinase BAM1 fused to nYFP (BAM1-nYFP) (Arabidopsis thaliana) (UniProt O49545); experiment: as above
T2 sequence: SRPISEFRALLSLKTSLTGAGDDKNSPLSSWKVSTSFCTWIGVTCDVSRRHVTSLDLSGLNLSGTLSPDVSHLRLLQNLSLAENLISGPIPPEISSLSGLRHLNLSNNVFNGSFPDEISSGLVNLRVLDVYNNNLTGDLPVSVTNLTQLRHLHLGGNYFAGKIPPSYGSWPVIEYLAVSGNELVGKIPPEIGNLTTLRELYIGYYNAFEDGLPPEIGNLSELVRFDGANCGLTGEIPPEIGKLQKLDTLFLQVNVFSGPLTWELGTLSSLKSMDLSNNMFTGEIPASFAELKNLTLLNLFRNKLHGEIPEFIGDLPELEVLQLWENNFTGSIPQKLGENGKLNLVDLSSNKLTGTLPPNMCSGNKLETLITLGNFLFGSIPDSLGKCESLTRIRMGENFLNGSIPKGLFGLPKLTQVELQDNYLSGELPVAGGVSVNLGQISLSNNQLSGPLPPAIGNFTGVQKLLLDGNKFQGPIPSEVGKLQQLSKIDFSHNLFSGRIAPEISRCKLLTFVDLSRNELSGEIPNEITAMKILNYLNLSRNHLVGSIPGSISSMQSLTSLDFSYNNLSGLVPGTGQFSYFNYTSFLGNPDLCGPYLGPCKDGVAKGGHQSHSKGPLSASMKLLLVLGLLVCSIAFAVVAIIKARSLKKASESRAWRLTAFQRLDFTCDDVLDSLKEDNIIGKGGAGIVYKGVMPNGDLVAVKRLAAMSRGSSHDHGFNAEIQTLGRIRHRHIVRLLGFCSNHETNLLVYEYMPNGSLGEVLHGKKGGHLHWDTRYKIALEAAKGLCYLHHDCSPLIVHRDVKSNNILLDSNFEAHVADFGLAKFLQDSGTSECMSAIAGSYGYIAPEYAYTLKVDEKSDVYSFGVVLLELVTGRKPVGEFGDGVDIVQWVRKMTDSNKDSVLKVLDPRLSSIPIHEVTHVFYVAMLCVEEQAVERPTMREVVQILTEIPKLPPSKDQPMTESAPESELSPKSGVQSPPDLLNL

[3] = molecular target: T3, BAM1-Cub (Arabidopsis thaliana) (UniProt O49545); experiment: two-hybrid; membrane-based split-ubiquitin Y2H, yeast L40; Cub fusions with NubG fusions; growth on SD without leucine, tryptophan and histidine, with 10 mM 3AT and 0.3 mM methionine
T3 sequence: T2 sequence

B1: Arabidopsis FIE fused to nYFP (nYFP-AtFIE) (protein, UniProt Q9LT47 1-369)
chain: MSKITLGNESIVGSLTPSNKKSYKVTNRIQEGKKPLYAVVFNFLDARFFDVFVTAGGNRITLYNCLGDGAISALQSYADEDKEESFYTVSWACGVNGNPYVAAGGVKGIIRVIDVNSETIHKSLVGHGDSVNEIRTQPLKPQLVITASKDESVRLWNVETGICILIFAGAGGHRYEVLSVDFHPSDIYRFASCGMDTTIKIWSMKEFWTYVEKSFTWTDDPSKFPTKFVQFPVFTASIHTNYVDCNRWFGDFILSKSVDNEILLWEPQLKENSPGEGASDVLLRYPVPMCDIWFIKFSCDLHLSSVAIGNQEGKVYVWDLKSCPPVLITKLSHNQSKSVIRQTAMSVDGSTILACCEDGTIWRWDVITK
[1]
  binding: binds

B2: TMV coat protein (CP), BiFC construct (protein, UniProt P69687 1-159)
chain: MSYSITTPSQFVFLSSAWADPIELINLCTNALGNQFQTQQARTVVQRQFSEVWKPSPQVTVRFPDSDFKVYRYNAVLDPLVTALLGAFDTRNRIIEVENQANPTTAETLDATRRVDDATVAIRSAINNLIVELIRGTGSYNRSSFESSSGLVWTSGPAT
[2]
  binding: no binding

B3: TMV CP fused to NubG (protein, UniProt P69687 1-159)
chain: B2 chain
[3]
  binding: no binding
